Results published in the supplement of paper PMC10849652.
The list shows a part of the results.

Sequences of proteins named here, by UniProt entry; tags and fusion partners are left off. A change or cut given only in a name is not applied to a line headed by its entry.
UniProt Q02833: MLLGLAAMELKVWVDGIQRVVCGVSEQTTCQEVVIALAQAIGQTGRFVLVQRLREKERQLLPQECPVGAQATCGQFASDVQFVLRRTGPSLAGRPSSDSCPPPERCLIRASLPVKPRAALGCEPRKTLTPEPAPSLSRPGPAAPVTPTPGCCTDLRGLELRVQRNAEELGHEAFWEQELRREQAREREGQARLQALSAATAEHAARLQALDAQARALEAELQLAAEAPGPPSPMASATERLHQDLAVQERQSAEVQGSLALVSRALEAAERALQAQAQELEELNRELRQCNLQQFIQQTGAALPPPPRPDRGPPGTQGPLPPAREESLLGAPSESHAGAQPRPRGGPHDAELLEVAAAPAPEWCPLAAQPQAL
UniProt Q5TC82: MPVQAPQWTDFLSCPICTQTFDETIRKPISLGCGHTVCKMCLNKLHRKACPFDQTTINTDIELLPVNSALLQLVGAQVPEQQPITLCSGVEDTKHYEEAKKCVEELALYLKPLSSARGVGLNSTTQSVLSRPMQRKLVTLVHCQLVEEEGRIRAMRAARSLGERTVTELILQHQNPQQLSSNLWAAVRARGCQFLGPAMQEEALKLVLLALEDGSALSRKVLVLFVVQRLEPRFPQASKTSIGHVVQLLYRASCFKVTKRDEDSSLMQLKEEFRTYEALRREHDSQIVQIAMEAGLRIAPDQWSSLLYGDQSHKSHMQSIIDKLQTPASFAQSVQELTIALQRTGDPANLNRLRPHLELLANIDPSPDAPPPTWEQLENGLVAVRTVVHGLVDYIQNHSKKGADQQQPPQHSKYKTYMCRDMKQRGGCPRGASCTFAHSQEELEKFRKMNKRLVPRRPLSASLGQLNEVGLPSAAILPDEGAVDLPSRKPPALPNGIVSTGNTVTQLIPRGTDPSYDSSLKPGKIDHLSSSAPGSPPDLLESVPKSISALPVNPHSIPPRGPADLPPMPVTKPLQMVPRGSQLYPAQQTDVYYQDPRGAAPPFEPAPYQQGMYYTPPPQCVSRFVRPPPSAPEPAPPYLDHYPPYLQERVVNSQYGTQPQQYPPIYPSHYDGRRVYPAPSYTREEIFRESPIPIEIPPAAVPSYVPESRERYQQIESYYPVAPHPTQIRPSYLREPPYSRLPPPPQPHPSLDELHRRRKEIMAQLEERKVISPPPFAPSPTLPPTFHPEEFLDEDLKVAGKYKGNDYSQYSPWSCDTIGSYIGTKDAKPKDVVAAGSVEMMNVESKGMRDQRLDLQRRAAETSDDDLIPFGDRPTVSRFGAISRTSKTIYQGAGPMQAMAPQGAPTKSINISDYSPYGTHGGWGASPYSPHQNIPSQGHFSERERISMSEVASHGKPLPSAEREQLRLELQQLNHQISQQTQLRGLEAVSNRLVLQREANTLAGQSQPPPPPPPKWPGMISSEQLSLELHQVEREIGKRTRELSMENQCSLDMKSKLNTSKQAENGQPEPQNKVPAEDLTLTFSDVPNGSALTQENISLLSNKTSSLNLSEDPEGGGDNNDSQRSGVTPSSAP
UniProt Q6NUM9: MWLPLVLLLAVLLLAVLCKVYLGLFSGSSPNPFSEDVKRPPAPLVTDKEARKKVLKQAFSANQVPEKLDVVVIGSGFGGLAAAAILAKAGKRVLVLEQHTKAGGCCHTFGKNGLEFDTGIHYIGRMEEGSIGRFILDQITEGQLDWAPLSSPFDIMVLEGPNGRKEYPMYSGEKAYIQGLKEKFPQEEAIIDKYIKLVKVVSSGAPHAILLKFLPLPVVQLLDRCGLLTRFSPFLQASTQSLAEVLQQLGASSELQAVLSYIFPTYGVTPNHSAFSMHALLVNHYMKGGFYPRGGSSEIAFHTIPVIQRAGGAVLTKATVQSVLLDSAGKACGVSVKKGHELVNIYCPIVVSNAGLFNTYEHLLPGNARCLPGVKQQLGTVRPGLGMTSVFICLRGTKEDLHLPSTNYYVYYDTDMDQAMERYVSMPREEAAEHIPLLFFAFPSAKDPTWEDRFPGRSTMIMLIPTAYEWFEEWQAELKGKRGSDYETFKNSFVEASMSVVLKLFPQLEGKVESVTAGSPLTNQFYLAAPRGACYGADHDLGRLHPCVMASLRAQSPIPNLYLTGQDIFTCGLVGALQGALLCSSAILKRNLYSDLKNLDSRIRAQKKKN
UniProt Q96IC2: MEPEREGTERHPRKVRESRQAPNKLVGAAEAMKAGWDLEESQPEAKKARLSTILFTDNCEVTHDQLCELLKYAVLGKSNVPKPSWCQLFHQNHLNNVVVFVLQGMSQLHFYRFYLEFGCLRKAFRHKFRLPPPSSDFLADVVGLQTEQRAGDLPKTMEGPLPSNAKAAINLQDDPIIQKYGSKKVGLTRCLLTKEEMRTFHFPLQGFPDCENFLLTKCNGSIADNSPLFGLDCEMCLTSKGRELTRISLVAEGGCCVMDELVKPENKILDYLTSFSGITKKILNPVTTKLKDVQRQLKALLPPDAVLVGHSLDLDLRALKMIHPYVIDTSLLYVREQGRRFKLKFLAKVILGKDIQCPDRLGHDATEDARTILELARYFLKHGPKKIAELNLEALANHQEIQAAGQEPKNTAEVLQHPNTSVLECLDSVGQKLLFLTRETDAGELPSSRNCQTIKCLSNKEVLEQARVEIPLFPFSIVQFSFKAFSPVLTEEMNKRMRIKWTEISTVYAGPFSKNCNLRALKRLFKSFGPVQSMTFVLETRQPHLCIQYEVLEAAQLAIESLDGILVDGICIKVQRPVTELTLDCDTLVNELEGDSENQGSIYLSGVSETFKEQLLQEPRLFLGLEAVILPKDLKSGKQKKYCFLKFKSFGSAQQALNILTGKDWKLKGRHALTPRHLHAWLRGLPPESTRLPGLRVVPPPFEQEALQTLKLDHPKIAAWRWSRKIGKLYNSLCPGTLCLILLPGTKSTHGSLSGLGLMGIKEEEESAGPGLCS
UniProt P48380: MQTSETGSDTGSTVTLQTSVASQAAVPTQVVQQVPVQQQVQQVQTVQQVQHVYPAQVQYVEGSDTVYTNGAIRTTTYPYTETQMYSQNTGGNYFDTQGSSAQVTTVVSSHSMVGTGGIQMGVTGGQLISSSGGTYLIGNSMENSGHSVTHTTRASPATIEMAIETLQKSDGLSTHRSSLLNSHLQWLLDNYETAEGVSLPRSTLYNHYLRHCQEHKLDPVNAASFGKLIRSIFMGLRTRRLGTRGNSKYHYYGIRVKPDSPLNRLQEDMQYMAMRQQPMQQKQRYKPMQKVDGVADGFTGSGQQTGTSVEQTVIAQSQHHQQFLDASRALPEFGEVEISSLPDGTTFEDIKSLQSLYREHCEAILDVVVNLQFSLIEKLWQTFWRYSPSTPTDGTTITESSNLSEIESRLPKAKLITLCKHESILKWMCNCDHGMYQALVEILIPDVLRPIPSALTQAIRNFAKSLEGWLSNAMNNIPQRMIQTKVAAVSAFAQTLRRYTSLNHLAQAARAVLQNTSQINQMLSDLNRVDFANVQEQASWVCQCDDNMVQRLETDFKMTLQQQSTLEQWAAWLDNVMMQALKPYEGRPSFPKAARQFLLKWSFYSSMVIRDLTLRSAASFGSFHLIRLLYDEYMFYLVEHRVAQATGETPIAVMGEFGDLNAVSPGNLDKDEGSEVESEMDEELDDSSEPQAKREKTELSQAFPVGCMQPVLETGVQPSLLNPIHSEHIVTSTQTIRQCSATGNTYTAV
UniProt Q08999: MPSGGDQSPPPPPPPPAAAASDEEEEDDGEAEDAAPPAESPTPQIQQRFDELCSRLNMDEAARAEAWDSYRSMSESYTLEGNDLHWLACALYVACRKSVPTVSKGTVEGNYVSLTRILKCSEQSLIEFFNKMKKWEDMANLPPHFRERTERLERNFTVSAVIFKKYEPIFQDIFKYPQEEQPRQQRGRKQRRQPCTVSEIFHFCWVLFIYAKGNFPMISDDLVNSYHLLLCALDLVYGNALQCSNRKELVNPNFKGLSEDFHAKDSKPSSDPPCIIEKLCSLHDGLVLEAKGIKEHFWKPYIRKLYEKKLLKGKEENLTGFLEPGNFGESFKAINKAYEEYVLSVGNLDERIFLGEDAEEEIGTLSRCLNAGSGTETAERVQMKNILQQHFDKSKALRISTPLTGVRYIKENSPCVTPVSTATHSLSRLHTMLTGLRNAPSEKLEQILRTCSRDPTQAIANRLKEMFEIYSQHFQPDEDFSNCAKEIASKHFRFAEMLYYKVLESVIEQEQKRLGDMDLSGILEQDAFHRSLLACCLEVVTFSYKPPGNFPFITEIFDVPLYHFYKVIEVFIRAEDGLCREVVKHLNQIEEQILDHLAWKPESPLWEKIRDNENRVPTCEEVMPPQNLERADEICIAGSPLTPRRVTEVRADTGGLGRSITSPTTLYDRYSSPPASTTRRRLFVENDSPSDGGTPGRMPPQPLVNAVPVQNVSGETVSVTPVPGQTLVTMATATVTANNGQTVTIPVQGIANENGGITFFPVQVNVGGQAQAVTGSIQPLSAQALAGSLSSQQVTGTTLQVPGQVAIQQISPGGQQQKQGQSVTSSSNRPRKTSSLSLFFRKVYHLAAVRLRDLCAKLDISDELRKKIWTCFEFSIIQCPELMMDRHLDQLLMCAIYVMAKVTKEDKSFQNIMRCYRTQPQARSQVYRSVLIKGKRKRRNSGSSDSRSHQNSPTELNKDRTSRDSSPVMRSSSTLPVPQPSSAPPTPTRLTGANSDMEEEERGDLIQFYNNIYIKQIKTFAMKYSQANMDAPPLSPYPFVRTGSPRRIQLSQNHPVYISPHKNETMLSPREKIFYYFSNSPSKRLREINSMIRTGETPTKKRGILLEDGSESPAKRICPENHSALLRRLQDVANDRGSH
UniProt Q5T8P6: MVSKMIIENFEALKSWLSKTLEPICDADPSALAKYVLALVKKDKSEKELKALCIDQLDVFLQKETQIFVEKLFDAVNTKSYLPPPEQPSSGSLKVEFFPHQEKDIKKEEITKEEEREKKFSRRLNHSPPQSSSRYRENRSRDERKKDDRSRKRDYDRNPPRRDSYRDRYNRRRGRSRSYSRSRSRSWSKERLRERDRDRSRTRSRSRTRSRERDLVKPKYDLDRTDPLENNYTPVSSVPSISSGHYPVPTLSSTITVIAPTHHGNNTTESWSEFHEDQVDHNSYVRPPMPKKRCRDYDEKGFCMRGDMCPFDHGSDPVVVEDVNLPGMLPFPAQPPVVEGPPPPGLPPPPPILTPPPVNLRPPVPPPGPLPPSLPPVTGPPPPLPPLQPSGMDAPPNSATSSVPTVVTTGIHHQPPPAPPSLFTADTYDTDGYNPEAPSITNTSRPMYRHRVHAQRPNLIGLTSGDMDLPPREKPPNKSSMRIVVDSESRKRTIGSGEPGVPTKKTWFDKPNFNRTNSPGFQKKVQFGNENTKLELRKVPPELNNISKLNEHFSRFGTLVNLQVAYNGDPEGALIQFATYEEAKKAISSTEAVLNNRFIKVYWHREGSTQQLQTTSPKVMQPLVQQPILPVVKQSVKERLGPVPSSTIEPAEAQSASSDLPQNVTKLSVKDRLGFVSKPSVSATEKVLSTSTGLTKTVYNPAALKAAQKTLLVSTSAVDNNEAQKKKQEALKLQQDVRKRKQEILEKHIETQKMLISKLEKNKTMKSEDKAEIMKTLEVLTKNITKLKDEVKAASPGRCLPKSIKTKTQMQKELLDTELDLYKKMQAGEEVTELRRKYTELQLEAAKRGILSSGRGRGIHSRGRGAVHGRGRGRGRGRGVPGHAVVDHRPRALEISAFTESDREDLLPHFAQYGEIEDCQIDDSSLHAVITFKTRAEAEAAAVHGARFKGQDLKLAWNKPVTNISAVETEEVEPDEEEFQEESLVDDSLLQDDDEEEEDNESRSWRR
UniProt Q8TEB9: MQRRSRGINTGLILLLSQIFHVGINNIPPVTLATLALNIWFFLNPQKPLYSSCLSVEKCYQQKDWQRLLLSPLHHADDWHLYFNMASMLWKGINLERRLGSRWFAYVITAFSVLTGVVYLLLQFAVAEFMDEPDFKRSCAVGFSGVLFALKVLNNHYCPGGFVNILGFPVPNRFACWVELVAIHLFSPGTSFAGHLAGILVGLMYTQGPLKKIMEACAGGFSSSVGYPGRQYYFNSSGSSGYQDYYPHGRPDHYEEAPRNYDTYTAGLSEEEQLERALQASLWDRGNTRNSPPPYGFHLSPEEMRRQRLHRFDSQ
UniProt Q6NUK4: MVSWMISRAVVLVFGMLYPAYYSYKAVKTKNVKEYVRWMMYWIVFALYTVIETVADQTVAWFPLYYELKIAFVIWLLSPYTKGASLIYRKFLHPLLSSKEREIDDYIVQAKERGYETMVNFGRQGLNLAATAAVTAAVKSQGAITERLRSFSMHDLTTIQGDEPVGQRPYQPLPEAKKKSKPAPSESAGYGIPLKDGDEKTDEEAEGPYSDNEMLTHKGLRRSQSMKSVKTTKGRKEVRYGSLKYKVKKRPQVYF
UniProt Q8N0T1: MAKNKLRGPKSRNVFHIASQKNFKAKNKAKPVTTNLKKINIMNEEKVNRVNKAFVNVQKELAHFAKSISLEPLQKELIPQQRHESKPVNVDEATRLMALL

Key:
Assay in all cases: log2 fold change, soluble protein after heating vs DMSO (PISA); higher = thermal stabilisation; K562 lysate, 10 uM; active = over 0.2 and 3.5 SD of the protein, either way, in both replicates (recomputed)
ibrutinib = compound: C=CC(=O)N1CCC[C@@H](n2nc(-c3ccc(Oc4ccccc4)cc3)c3c(N)ncnc32)C1 [ibrutinib]
In short: (§1)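 The values are log-two fold changes in thermal stability compared with solvent controls and come from duplicates. They were obtained by TMTpro 16plex LC-MS/MS, with channel sums equalised, on the supernatant after 21,000xg for 90 min. That supernatant came from crude K562 extract at 1 mg/mL protein treated with 10 μM compound for 30 min, heated for 3 min across 48°C-58°C, pooled and brought to 0.5% NP-40 at 4°C.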

[1] = compound: CC(=O)c1cnc2ccc(-c3cc(Cl)c(O)c(Cl)c3)nc2c1N[C@H]1CC[C@H](CN(C)C)CC1
In short: as §1

ralimetinib = compound: CC(C)(C)Cn1c(N)nc2ccc(-c3[nH]c(C(C)(C)C)nc3-c3ccc(F)cc3)nc21 [ralimetinib]
In short: as §1

[2] = compound: CC(C)(O)CC(=O)NCCn1ccc2ncnc(Nc3ccc(Oc4cccc(C(F)(F)F)c4)c(Cl)c3)c21
In short: as §1

[3] = compound: CC(C)C1=C2N=C(C=C(N2N=C1)NCC3=CC=CC=C3)NCCCCCCN
In short: as §1

[4] = compound: CC1=C(C(CC(=O)N1)C2=CC=C(C=C2)C(F)(F)F)C(=O)NC3=C(C=C4C(=C3)C=NN4)F
In short: as §1

[5] = compound: CC1=C(C=C(C=C1)NC(=O)C2=CC(=CC=C2)C(C)(C)C#N)NC3=CC4=C(C=C3)N=CN(C4=O)C
In short: as §1

[6] = compound: CC1=C(C=C(C=C1)NC(=O)C2=CC(=CC=C2)N(C)C)NC(=O)C3=CC=C(C=C3)O
In short: as §1

[7] = compound: CC1=CC=C(C=C1)SC2=C3C=C(SC3=CN=C2)C(=O)N
In short: as §1

[8] = compound: CC1=C(C2=C(C=C1)C(=O)C3=CC=CC=C3N2CCCN)C
In short: as §1

Row | Target | log2 fold change (ibrutinib) | log2 fold change [1] | log2 fold change (ralimetinib) | log2 fold change [2] | log2 fold change [3] | log2 fold change [4] | log2 fold change [5] | log2 fold change [6] | log2 fold change [7] | log2 fold change [8]
1 | RETREG2 (UniProt Q8NC44) | inactive: 0.011 | inactive: 0.009 | inactive: 0.071 | inactive: -0.129 | inactive: 0.062 | inactive: 0.127 | inactive: 0.051 | inactive: 0.116 | inactive: 0.011 | 
2 | RBBP4 isoform 2 (UniProt Q09028) | inactive: 0.003 | inactive: -0.068 |  |  |  |  |  |  | inactive: 0.006 | 
3 | RASSF7 (UniProt Q02833) | inactive: -0.049 |  |  |  |  | inactive: 0.015 | inactive: -0.078 |  |  | 
4 | RC3H1 (UniProt Q5TC82) | inactive: 0.057 | inactive: -0.107 | inactive: 0.067 | inactive: -0.042 | inactive: -0.028 | inactive: -0.071 | inactive: -0.037 | inactive: 0.026 | inactive: 0.06 | inactive: 0.074
5 | RETSAT (UniProt Q6NUM9) | inactive: -0.091 | inactive: 0.073 | inactive: -0.057 | inactive: -0.134 | inactive: 0.07 |  | inactive: 0.226 | inactive: -0.015 | inactive: -0.24 | inactive: -0.113
6 | RBM41 (UniProt Q96IZ5) | inactive: 0.072 |  |  |  |  | inactive: -0.032 |  |  |  | 
7 | REXO5 (UniProt Q96IC2) | inactive: -0.063 |  | inactive: 0.02 | inactive: -0.065 | inactive: -0.04 | inactive: 0.015 |  | inactive: 0.088 |  | inactive: -0.004
8 | RFX3 (UniProt P48380) | inactive: -0.053 |  |  |  |  | inactive: -0.033 |  |  |  | inactive: 0.028
9 | RBL2 (UniProt Q08999) | inactive: 0.014 | inactive: -0.061 | inactive: 0.055 | inactive: -0.018 |  | inactive: -0.047 | inactive: -0.145 | inactive: 0.002 | inactive: 0.008 | inactive: -0.004
10 | RBBP5 isoform 2 (UniProt Q15291) | inactive: 0.07 | inactive: 0.003 | inactive: 0.054 | inactive: 0.026 |  | inactive: -0.297 | inactive: -0.302 | inactive: -0.025 | inactive: -0.114 | inactive: 0.038
11 | RBP4 (UniProt P02753) | inactive: 0.069 |  |  |  |  |  | inactive: -0.234 |  |  | 
12 | RBM26 isoform 3 (UniProt Q5T8P6) | inactive: 0.073 | inactive: 0.034 | inactive: 0.177 | inactive: 0.047 | inactive: 0.083 | inactive: -0.01 | inactive: 0.028 | inactive: -0.011 | inactive: 0.011 | inactive: 0.074
13 | RHBDD1 (UniProt Q8TEB9) | inactive: -0.059 | active: -0.518 |  |  |  |  |  |  | inactive: 0.038 | 
14 | RBM23 isoform 2 (UniProt Q86U06) | inactive: -0.125 | inactive: -0.014 | inactive: 0.041 | inactive: -0.096 | inactive: 0.081 | inactive: 0.151 | inactive: 0.112 | inactive: -0.022 | inactive: 0.05 | inactive: -0.122
15 | REEP3 (UniProt Q6NUK4) | inactive: 0.105 | inactive: 0.037 | inactive: 0.072 | inactive: 0.073 | inactive: -0.035 | inactive: -0.017 | inactive: -0.01 | inactive: -0.007 | inactive: 0.047 | 
16 | RBIS (UniProt Q8N0T1) | inactive: 0.057 |  | inactive: -0.033 | inactive: -0.148 | inactive: -0.057 |  | inactive: 0.029 | inactive: 0.05 |  | inactive: -0.013
17 | RFX1 (UniProt P22670) | inactive: 0.021 | inactive: 0.008 | inactive: -0.001 | inactive: -0.007 | inactive: -0.018 | inactive: 0.028 | inactive: 0.033 | inactive: 0 | inactive: -0.002 | inactive: 0.023
18 | RBM12B (UniProt Q8IXT5) | inactive: -0.279 |  | inactive: 0.106 | inactive: 0.169 |  | inactive: 0.042 |  | inactive: 0.118 |  | 
19 | RFWD3 (UniProt Q6PCD5) | inactive: -0.001 |  | inactive: 0.039 | inactive: -0.059 | inactive: 0.066 | inactive: 0.059 | inactive: 0.087 | inactive: -0.007 |  | inactive: -0.06

Pulled one by one from above:
Row | Target | log2 fold change (ibrutinib) | log2 fold change [1] | log2 fold change (ralimetinib) | log2 fold change [2] | log2 fold change [3] | log2 fold change [4] | log2 fold change [5] | log2 fold change [6] | log2 fold change [7] | log2 fold change [8]
9 | RBL2 (UniProt Q08999) | inactive: 0.014 | inactive: -0.061 | inactive: 0.055 | inactive: -0.018 |  | inactive: -0.047 | inactive: -0.145 | inactive: 0.002 | inactive: 0.008 | inactive: -0.004
19 | RFWD3 (UniProt Q6PCD5) | inactive: -0.001 |  | inactive: 0.039 | inactive: -0.059 | inactive: 0.066 | inactive: 0.059 | inactive: 0.087 | inactive: -0.007 |  | inactive: -0.06
